# The source gives many values for each of these; only a part stands here.
# Columns and labels:
# Assay type in all cases: cell-based
# Settings in all cases: U-87MG ATCC
# [1] = Inhibition of RTK/PI3K/AKT/mTOR signaling in human U87 cells assessed as down regulation of RNASEH2C gene expression at cytotoxic IC50 measured after 48 hrs relative to control
# [2] = Inhibition of RTK/PI3K/AKT/mTOR signaling in human U87 cells assessed as down regulation of OSTM1 gene expression at cytotoxic IC50 measured after 48 hrs relative to control
# [3] = Inhibition of RTK/PI3K/AKT/mTOR signaling in human U87 cells assessed as down regulation of E2F7 gene expression at cytotoxic IC50 measured after 48 hrs relative to control
# [4] = Inhibition of RTK/PI3K/AKT/mTOR signaling in human U87 cells assessed as down regulation of UBL3 gene expression at cytotoxic IC50 measured after 48 hrs relative to control
# [5] = Inhibition of RTK/PI3K/AKT/mTOR signaling in human U87 cells assessed as down regulation of TRIP12 gene expression at cytotoxic IC50 measured after 48 hrs relative to control
# [6] = Inhibition of RTK/PI3K/AKT/mTOR signaling in human U87 cells assessed as down regulation of PDE12 gene expression at cytotoxic IC50 measured after 48 hrs relative to control
# [7] = Inhibition of RTK/PI3K/AKT/mTOR signaling in human U87 cells assessed as down regulation of SULF2 gene expression at cytotoxic IC50 measured after 48 hrs relative to control
# [8] = Inhibition of RTK/PI3K/AKT/mTOR signaling in human U87 cells assessed as down regulation of SEC14L2 gene expression at cytotoxic IC50 measured after 48 hrs relative to control
# [9] = Inhibition of RTK/PI3K/AKT/mTOR signaling in human U87 cells assessed as down regulation of COPS8 gene expression at cytotoxic IC50 measured after 48 hrs relative to control
# [10] = Inhibition of RTK/PI3K/AKT/mTOR signaling in human U87 cells assessed as down regulation of UNC13B gene expression at cytotoxic IC50 measured after 48 hrs relative to control
# [11] = Inhibition of RTK/PI3K/AKT/mTOR signaling in human U87 cells assessed as down regulation of UBR3 gene expression at cytotoxic IC50 measured after 48 hrs relative to control
# [12] = Inhibition of RTK/PI3K/AKT/mTOR signaling in human U87 cells assessed as down regulation of SLC4A1AP gene expression at cytotoxic IC50 measured after 48 hrs relative to control
# [13] = Inhibition of RTK/PI3K/AKT/mTOR signaling in human U87 cells assessed as down regulation of NUP93 gene expression at cytotoxic IC50 measured after 48 hrs relative to control
# [14] = Inhibition of RTK/PI3K/AKT/mTOR signaling in human U87 cells assessed as down regulation of FCF1 gene expression at cytotoxic IC50 measured after 48 hrs relative to control
# [15] = Inhibition of RTK/PI3K/AKT/mTOR signaling in human U87 cells assessed as down regulation of MYO10 gene expression at cytotoxic IC50 measured after 48 hrs relative to control
# [16] = Inhibition of RTK/PI3K/AKT/mTOR signaling in human U87 cells assessed as down regulation of TUBB3 gene expression at cytotoxic IC50 measured after 48 hrs relative to control
# [17] = Inhibition of RTK/PI3K/AKT/mTOR signaling in human U87 cells assessed as up regulation of LOC728084 gene expression at cytotoxic IC50 measured after 48 hrs relative to control
# [18] = Inhibition of RTK/PI3K/AKT/mTOR signaling in human U87 cells assessed as up regulation of CCDC110 gene expression at cytotoxic IC50 measured after 48 hrs relative to control
# [19] = Inhibition of RTK/PI3K/AKT/mTOR signaling in human U87 cells assessed as up regulation of SYT12 gene expression at cytotoxic IC50 measured after 48 hrs relative to control
# [20] = Inhibition of RTK/PI3K/AKT/mTOR signaling in human U87 cells assessed as up regulation of NDRG1 gene expression at cytotoxic IC50 measured after 48 hrs relative to control
# [21] = Inhibition of RTK/PI3K/AKT/mTOR signaling in human U87 cells assessed as up regulation of PLEKHB1 gene expression at cytotoxic IC50 measured after 48 hrs relative to control
# [22] = Inhibition of RTK/PI3K/AKT/mTOR signaling in human U87 cells assessed as up regulation of leucine zipper transcription factor like 1 gene expression at cytotoxic IC50 measured after 48 hrs relative to control
# [23] = Inhibition of RTK/PI3K/AKT/mTOR signaling in human U87 cells assessed as up regulation of inositol polyphosphate-4-phosphatase type II B gene expression at cytotoxic IC50 measured after 48 hrs relative to control
# [24] = Inhibition of RTK/PI3K/AKT/mTOR signaling in human U87 cells assessed as up regulation of cathepsin H gene expression at cytotoxic IC50 measured after 48 hrs relative to control
# [25] = Inhibition of RTK/PI3K/AKT/mTOR signaling in human U87 cells assessed as up regulation of membrane palmitoylated protein 6 gene expression at cytotoxic IC50 measured after 48 hrs relative to control
# [26] = Inhibition of RTK/PI3K/AKT/mTOR signaling in human U87 cells assessed as up regulation of spermatogenesis associated 20 gene expression at cytotoxic IC50 measured after 48 hrs relative to control
# [27] = Inhibition of RTK/PI3K/AKT/mTOR signaling in human U87 cells assessed as up regulation of ATPase H+ transporting V0 subunit a1 gene expression at cytotoxic IC50 measured after 48 hrs relative to control
# [28] = Inhibition of RTK/PI3K/AKT/mTOR signaling in human U87 cells assessed as up regulation of pleckstrin homology like domain family A member 3 gene expression at cytotoxic IC50 measured after 48 hrs relative to control
# [29] = Inhibition of RTK/PI3K/AKT/mTOR signaling in human U87 cells assessed as up regulation of fibrillarin gene expression at cytotoxic IC50 measured after 48 hrs relative to control
# [30] = Inhibition of RTK/PI3K/AKT/mTOR signaling in human U87 cells assessed as up regulation of CUEDC2 gene expression at cytotoxic IC50 measured after 48 hrs relative to control
# [31] = Inhibition of RTK/PI3K/AKT/mTOR signaling in human U87 cells assessed as up regulation of STK25 gene expression at cytotoxic IC50 measured after 48 hrs relative to control
# [32] = Inhibition of RTK/PI3K/AKT/mTOR signaling in human U87 cells assessed as up regulation of RPS24 gene expression at cytotoxic IC50 measured after 48 hrs relative to control
smiles,measurement,setting,value
CC(=O)C(=NNc1ccccc1C#N)C(C)=O,log2FC,[1],-1.43
same,log2FC,[2],-1.32
same,log2FC,[3],-1.26
same,log2FC,[4],-1.18
same,log2FC,[5],-0.925
same,log2FC,[6],-0.923
same,log2FC,[7],-0.909
same,log2FC,[8],-0.891
same,log2FC,[9],-0.867
same,log2FC,[10],-0.861
same,log2FC,[11],-0.778
same,log2FC,[12],-0.715
same,log2FC,[13],-0.604
same,log2FC,[14],-0.561
same,log2FC,[15],-0.539
same,log2FC,[16],-2.98
same,log2FC,[17],2.84
same,log2FC,[18],2.45
same,log2FC,[19],2.42
same,log2FC,[20],2
same,log2FC,[21],1.91
same,log2FC,[22],1.48
same,log2FC,[23],1.29
same,log2FC,[24],1.23
same,log2FC,[25],1.07
same,log2FC,[26],0.827
same,log2FC,[27],0.731
same,log2FC,[28],0.669
same,log2FC,[29],0.663
same,log2FC,[30],0.605
same,log2FC,[31],0.582
same,log2FC,[32],0.334
